From patent US20160137630A1, “INDUCTION OF GATA2 BY HDAC1 AND HDAC2 INHIBITORS” (ACETYLON PHARMACEUTICALS, INC., priority 2014, published 2016)
For part of these data: For at least one compound, name, drawing or mass did not settle the structure. Some results were stated once for a whole list of compounds, not compound by compound.

How the values were obtained:
[1] = tested on: HbF; assay: HbF protein by FITC-conjugated anti-HbF antibody and flow cytometry; format: cell-based, human; details: 1 μM; FIG. 10C
[2] = tested on: Gata2 mRNA; assay: induction of Gata2 mRNA in erythroid progenitors by HDAC1,2 inhibitors; format: cell-based, human; details: erythroid progenitors differentiated 3 days with compound; FIG. 2A-C
Excerpt: Human bone marrow derived CD34+ cells were expanded for 7 days as described by Sankaran et al., Science, vol. 322(5909), pp. 1839-42 (2008). Cells were then differentiated, in the presence of the indicated compound (i.e., Compounds 001, Compound Y, Compound 2005, Compound 2004, Compound 2003), for 3 days in media supporting erythropoiesis (Hu et al., “Isolation and functional characterization of human erythroblasts at distinct stages: implications for understanding of normal and disordered erythropoiesis in vivo”, Blood, vol. 121(16), pp. 3246-53 ([…])). FIG. 2A, FIG. 2B, and FIG. 2C each represents an experimental series performed on different days and with different donor cells.

Row | SMILES | increase in HbF protein levels [1] | Gata2 mRNA [2]
1 | Nc1ccc(-c2cccs2)cc1NC(=O)c1ccc2nc(N3CCNCC3)ccc2c1 [Compound 001, N-(2-amino-5-(thiophen-2-yl)phenyl)-2-(piperazin-1-yl)quinoline-6-carboxamide] | over 3 fold | –
2 | CN1CCN(C(=O)N2CCC(C)(Nc3ncc(C(=O)Nc4cc(-c5cccs5)ccc4N)cn3)CC2)CC1 [Compound 2009] | – | induction of Gata2 mRNA
3 | Nc1ccccc1NC(=O)c1ccc(CNC(=O)OCc2cccnc2)cc1 [Entinostat, reference compound] | over 3 fold | –
